PubChem BioAssay AID256 (DTP/NCI, 2004)
The list is a part of this screen's results and no random one: it gathers tests that were run many times, whatever their T/C, doses with no T/C, and many T/C values between a quarter and a half above the control. Other doses and runs of a compound stand elsewhere. T/C is the treated group as % of the vehicle group. Some entries give survivors of the animals treated and no T/C: the source holds a T/C of zero for them, seemingly a mark for toxic or unscored doses. Some survivor counts are full or nearly so, which does not show that the dose was tolerated: survival well below the control is almost never listed, so the zero probably covers shortened survival too. Survivors were counted at the toxicity check, usually on the fifth day, unless a day is given; later deaths do not show. Schedule codes are those of the source, taken here to give the interval after Q, in days (D) or hours (H), and the number of doses after X. For survival time, the PubChem record calls one and a half times the control and up active, and a quarter to a half above the control has no call in these data; cut-offs in other NCI protocols can differ. Some entries were tested several times; the values are given in rising order. Some T/C values carry the count of animals alive at the toxicity check (mostly the fifth day); where none is given, no animal had died by that day.

Tested on: CD2F1 mice, L1210 leukemia ip, survival T/C
Assay: NCI In Vivo Anticancer Drug Screen. Data for tumor model L1210 Leukemia (intraperitoneal) in CD2F1 (CDF1) mice
Details: higher T/C = longer survival
How it was run: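 Antitumor effect is scored in animals hosting a serially transplanted tumor. Values compare compound-dosed animals against vehicle-only controls as a simple quotient.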

[1] = T/C endpoint: median survival time, dose: 200.0 mg/kg/injection, schedule: Q01DX005 (ip), vehicle: saline
[2] = T/C endpoint: mean survival time, dose: 200.0 mg/kg/injection, schedule: Q04DX003 (ip), vehicle: saline with Tween-80
[3] = T/C endpoint: mean survival time, dose: 400.0 mg/kg/injection, schedule: Q04DX003 (ip), vehicle: saline with Tween-80

CN(N=O)C(=O)NCC1CCC(CNC(=O)N(C)N=O)CC1 (stereo unspecified)
survivor count (T/C endpoint: mean survival time, dose: 600.0 mg/kg/injection, schedule: Q01DX001 (ip), vehicle: carboxymethylcellulose (CMC)): 0 of 6 | survivor count (T/C endpoint: mean survival time, dose: 800.0 mg/kg/injection, schedule: Q01DX001 (ip), vehicle: carboxymethylcellulose (CMC)): 0 of 6 | survivor count (T/C endpoint: mean survival time, dose: 1000.0 mg/kg/injection, schedule: Q01DX001 (ip), vehicle: carboxymethylcellulose (CMC)): 1 of 6

O=C1CCCCC1CNCc1ccccc1 (stereo unspecified)
survivor count (T/C endpoint: mean survival time, dose: 300.0 mg/kg/injection, schedule: Q01DX001 (ip), vehicle: saline): 0 of 6

NC(=Nc1ccccc1)Nc1ccccc1
survivor count (T/C endpoint: mean survival time, dose: 100.0 mg/kg/injection, schedule: Q01DX009 (ip), vehicle: saline with Tween-80): 1 of 3 | survivor count (T/C endpoint: mean survival time, dose: 200.0 mg/kg/injection, schedule: Q01DX009 (ip), vehicle: saline with Tween-80): 0 of 3

CSc1nc(NN)n2nccc2n1
survivor count [1]: 1 of 6

Cc1ccc(S(=O)(=O)SCC(=O)c2ccc([N+](=O)[O-])cc2)cc1
survivor count (T/C endpoint: mean survival time, dose: 400.0 mg/kg/injection, schedule: Q01DX009 (ip), vehicle: saline sonified): 2 of 6

Nc1ncnc2c1c1c(=S)nc[nH]c1n2C1OC(CO)C(O)C1O (stereo unspecified)
T/C (T/C endpoint: mean survival time, dose: 12.5 mg/kg/injection, schedule: Q01DX005 (ip), vehicle: water): 125 % of control | T/C (T/C endpoint: mean survival time, dose: 25.0 mg/kg/injection, schedule: Q01DX005 (ip), vehicle: water): 125 % of control | T/C (T/C endpoint: mean survival time, dose: 50.0 mg/kg/injection, schedule: Q01DX005 (ip), vehicle: water): 130 % of control | T/C (T/C endpoint: mean survival time, dose: 100.0 mg/kg/injection, schedule: Q01DX005 (ip), vehicle: water): 138 % of control [4 of 6 alive] | survivor count (T/C endpoint: mean survival time, dose: 200.0 mg/kg/injection, schedule: Q01DX005 (ip), vehicle: water): 1 of 6

O=C(CSCC(=O)c1ccccc1)c1ccccc1
survivor count (T/C endpoint: mean survival time, dose: 100.0 mg/kg/injection, schedule: Q04DX002 (ip), vehicle: Klucel (hydroxypropylcellulose) (HPC)): 3 of 3 | survivor count (T/C endpoint: mean survival time, dose: 200.0 mg/kg/injection, schedule: Q04DX002 (ip), vehicle: Klucel (hydroxypropylcellulose) (HPC)): 3 of 3

CC(C)(C)C1CCS(=O)(=O)CC1.[Cl][Hg][Cl]
survivor count (T/C endpoint: mean survival time, dose: 5.0 mg/kg/injection, schedule: Q04DX003 (ip), vehicle: saline sonified): 0 of 6 | survivor count (T/C endpoint: mean survival time, dose: 10.0 mg/kg/injection, schedule: Q04DX003 (ip), vehicle: saline sonified): 0 of 6 | survivor count (T/C endpoint: mean survival time, dose: 20.0 mg/kg/injection, schedule: Q04DX003 (ip), vehicle: saline sonified): 0 of 6 | survivor count (T/C endpoint: mean survival time, dose: 100.0 mg/kg/injection, schedule: Q04DX003 (ip), vehicle: saline with Tween-80): 0 of 6 | survivor count [2]: 0 of 6 | survivor count [3]: 0 of 6

NC(=O)C1C=CN(Cc2ccccc2)C=C1
survivor count (T/C endpoint: median survival time, dose: 240.0 mg/kg/injection, schedule: Q01DX005 (ip), vehicle: saline with Tween-80): 4 of 6 | survivor count (T/C endpoint: median survival time, dose: 480.0 mg/kg/injection, schedule: Q01DX005 (ip), vehicle: saline with Tween-80): 1 of 6

CC(C)Cc1ccc(OC(=O)Nc2ccc(Cl)cc2)cc1
survivor count [2]: 6 of 6 | survivor count [3]: 6 of 6

CCNC(=O)OCC1C2=C(C(=O)C(C)=C(N)C2=O)N2CC3C(N3C)C12OC (stereo unspecified)
T/C (T/C endpoint: mean survival time, dose: 200.0 mg/kg/injection, schedule: Q01DX001 (ip), vehicle: carboxymethylcellulose (CMC)): 130 % of control

COc1ccc(C(OCC2OC(n3cc(C)c(=O)[nH]c3=O)CC2OP(=O)(O)OCC2OC(n3cc(C)c(=O)[nH]c3=O)CC2OP(=O)(O)OCC2OC(n3cc(C)c(=O)[nH]c3=O)CC2OP(=O)(O)OCC2OC(n3cc(C)c(=O)[nH]c3=O)CC2OP(=O)(O)OCC2OC(n3ccc(N)nc3=O)C(O)C2O)(c2ccccc2)c2ccccc2)cc1 (stereo unspecified)
T/C (T/C endpoint: median survival time, dose: 50.0 mg/kg/injection, schedule: Q01DX005 (ip), vehicle: saline): 131 % of control | T/C (T/C endpoint: median survival time, dose: 100.0 mg/kg/injection, schedule: Q01DX005 (ip), vehicle: saline): 131 and 137 % of control | T/C [1]: 141 and 146 % of control

Cc1c2ccc3ccccc3c2c[n+]2ccccc12
survivor count (T/C endpoint: mean survival time, dose: 20.0 mg/kg/injection, schedule: Q01DX009 (ip), vehicle: Klucel (hydroxypropylcellulose) (HPC)): 1 of 6 | survivor count (T/C endpoint: mean survival time, dose: 40.0 mg/kg/injection, schedule: Q01DX009 (ip), vehicle: Klucel (hydroxypropylcellulose) (HPC)): 0 of 6
